The supplement of paper PMC10849652
This is one part of the list.

Chains of the proteins cited; added tags and fusions are not shown. Lines headed by an entry give the natural chain unless they say otherwise; changes in a name come on top.
UniProt Q96I51, whole entry, looked up: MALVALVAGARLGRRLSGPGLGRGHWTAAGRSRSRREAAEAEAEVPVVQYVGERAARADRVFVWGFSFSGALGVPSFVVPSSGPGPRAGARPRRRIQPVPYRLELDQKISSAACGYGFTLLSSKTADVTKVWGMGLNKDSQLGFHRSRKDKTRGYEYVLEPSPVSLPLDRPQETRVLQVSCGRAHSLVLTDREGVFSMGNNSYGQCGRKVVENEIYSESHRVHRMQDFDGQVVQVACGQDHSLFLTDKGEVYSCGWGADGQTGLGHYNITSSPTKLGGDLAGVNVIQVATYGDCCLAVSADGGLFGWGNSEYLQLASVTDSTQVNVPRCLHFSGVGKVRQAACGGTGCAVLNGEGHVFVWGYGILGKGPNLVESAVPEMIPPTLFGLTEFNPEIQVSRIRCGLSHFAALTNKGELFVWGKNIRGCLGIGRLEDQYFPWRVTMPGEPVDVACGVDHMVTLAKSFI
UniProt Q9Y3B8: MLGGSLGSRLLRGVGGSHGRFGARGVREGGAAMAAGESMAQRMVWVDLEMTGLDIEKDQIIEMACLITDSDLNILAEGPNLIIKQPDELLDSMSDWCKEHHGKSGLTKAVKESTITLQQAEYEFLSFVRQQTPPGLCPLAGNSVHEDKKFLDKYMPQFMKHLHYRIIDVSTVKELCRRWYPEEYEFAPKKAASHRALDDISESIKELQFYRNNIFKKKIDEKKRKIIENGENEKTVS
UniProt Q96HR9: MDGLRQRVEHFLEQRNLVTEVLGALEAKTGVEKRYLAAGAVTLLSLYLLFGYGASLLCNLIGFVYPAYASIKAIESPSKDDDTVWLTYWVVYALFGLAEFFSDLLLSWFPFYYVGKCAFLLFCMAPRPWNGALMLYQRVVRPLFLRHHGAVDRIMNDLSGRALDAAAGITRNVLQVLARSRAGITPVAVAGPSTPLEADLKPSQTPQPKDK
UniProt Q9BRS2: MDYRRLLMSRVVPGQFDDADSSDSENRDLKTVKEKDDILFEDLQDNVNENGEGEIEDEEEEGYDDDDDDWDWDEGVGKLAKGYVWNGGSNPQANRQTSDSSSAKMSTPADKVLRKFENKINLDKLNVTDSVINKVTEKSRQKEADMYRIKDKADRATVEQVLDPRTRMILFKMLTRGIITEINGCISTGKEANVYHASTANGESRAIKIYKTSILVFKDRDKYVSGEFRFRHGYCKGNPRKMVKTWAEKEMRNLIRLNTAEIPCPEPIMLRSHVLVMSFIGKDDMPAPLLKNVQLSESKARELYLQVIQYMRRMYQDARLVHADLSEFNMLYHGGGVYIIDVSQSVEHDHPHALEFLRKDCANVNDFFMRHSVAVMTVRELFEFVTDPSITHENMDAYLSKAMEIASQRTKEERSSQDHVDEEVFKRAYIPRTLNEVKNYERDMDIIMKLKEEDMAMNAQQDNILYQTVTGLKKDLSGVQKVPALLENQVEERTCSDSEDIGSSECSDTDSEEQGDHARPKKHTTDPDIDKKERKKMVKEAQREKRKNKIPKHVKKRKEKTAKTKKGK
UniProt P51606: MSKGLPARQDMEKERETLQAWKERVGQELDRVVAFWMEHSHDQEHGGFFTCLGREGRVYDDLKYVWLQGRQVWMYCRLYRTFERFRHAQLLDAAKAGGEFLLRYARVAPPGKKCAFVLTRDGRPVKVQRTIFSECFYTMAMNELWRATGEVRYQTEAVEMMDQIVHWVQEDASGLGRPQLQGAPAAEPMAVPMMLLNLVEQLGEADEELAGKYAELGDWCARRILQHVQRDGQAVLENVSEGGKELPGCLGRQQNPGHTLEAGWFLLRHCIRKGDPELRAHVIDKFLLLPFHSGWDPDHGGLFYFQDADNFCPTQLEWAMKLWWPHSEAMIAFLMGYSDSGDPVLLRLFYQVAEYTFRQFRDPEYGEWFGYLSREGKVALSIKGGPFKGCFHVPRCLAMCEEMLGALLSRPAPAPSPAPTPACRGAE
UniProt Q8TDP1: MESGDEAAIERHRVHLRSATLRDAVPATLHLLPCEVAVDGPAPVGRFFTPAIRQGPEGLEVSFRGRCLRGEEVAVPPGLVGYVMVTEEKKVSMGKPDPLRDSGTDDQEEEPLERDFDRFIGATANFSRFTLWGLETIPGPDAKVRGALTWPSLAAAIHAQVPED
UniProt O43353, whole entry, looked up: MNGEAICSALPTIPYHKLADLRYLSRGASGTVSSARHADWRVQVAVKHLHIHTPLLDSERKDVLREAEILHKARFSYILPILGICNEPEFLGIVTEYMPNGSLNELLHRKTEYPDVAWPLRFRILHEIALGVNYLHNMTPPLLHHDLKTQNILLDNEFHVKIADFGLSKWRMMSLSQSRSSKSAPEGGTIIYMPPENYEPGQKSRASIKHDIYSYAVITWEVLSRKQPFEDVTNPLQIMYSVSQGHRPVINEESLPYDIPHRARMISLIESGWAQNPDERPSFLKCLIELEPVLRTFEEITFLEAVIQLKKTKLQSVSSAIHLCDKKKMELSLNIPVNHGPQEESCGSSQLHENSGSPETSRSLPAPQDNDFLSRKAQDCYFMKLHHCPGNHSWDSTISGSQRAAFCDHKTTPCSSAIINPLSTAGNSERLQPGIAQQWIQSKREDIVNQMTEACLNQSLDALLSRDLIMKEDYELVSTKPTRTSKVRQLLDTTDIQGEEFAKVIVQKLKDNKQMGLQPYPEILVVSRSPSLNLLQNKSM
UniProt P52758: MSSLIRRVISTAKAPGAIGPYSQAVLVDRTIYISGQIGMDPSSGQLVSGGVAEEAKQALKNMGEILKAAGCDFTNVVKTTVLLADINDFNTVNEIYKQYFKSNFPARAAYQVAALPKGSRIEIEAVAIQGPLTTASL
UniProt Q9H920: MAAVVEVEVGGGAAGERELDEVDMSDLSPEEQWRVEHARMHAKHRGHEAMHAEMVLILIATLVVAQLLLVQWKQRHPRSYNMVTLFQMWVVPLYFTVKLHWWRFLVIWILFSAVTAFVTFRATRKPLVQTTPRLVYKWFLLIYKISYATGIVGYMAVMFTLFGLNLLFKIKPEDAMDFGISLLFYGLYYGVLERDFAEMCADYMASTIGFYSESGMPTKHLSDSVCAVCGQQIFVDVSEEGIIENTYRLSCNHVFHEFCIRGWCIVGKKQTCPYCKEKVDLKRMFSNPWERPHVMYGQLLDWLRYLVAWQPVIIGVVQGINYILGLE
UniProt P62877, whole entry, looked up: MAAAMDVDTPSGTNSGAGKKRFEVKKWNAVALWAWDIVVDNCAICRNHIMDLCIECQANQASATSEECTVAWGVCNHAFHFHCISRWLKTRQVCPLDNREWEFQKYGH
UniProt Q8ND24: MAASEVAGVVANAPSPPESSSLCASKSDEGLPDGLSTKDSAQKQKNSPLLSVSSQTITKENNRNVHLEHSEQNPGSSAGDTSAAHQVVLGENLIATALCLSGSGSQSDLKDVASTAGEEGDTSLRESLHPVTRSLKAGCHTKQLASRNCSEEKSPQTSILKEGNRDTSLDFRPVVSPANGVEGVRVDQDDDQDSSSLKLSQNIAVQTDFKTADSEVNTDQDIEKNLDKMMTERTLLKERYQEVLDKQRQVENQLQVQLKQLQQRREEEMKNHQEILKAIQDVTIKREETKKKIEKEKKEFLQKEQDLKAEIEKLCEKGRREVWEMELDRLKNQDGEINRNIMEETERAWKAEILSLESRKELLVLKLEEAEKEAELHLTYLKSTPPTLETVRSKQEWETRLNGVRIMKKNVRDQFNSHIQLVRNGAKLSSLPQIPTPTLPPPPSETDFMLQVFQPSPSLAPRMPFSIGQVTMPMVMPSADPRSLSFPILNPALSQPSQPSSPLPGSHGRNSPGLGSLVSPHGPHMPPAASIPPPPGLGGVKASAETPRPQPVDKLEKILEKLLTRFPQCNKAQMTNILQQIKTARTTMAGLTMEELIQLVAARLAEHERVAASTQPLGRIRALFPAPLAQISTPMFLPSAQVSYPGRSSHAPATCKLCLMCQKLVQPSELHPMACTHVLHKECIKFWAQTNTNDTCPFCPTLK
UniProt Q96AA3: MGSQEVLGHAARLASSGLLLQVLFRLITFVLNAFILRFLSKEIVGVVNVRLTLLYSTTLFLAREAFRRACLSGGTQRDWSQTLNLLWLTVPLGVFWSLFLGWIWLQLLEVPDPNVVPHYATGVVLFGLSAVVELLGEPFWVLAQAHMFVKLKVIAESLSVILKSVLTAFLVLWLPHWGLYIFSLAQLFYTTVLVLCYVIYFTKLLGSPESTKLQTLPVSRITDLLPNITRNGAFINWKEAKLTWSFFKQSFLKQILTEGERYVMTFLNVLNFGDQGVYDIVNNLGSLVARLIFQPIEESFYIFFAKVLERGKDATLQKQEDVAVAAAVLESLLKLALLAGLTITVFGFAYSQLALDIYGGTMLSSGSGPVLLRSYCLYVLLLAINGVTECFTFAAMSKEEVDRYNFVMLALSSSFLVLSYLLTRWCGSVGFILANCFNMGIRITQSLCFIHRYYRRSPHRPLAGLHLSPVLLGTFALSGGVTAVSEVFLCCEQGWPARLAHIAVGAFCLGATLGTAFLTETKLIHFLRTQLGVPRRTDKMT
UniProt Q9H871: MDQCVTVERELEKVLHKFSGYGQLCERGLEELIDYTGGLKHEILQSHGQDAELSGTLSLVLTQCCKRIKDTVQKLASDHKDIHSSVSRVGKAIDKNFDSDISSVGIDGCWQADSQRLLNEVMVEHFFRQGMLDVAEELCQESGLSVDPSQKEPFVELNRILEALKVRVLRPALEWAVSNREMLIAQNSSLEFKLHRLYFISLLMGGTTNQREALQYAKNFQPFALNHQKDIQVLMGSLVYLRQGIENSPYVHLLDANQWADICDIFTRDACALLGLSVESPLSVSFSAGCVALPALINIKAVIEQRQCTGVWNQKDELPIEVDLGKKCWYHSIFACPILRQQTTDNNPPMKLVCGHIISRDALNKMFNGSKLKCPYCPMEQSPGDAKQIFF
UniProt Q969G6: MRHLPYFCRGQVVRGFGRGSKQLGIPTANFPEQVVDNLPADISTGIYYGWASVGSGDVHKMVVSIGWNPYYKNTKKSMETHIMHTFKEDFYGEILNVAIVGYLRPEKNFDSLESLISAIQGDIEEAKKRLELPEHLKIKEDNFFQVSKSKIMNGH
UniProt Q8WVD3: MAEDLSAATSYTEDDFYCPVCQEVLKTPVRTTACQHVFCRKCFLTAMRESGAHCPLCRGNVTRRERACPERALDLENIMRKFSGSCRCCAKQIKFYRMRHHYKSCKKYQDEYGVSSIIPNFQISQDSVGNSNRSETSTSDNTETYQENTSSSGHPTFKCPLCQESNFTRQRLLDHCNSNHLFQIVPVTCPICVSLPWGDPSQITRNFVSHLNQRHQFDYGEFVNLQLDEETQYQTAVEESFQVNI
UniProt Q96NA2: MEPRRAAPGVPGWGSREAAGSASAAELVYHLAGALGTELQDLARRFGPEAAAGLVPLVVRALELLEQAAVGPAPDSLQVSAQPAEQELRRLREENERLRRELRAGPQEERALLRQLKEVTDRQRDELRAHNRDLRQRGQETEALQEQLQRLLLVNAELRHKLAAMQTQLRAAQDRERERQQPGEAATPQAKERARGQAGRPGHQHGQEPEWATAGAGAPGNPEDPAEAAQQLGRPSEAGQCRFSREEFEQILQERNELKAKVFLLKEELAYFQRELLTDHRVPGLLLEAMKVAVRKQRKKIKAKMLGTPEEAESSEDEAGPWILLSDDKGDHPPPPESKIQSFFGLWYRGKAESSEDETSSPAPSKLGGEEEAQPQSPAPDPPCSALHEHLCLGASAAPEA
UniProt Q96PM5: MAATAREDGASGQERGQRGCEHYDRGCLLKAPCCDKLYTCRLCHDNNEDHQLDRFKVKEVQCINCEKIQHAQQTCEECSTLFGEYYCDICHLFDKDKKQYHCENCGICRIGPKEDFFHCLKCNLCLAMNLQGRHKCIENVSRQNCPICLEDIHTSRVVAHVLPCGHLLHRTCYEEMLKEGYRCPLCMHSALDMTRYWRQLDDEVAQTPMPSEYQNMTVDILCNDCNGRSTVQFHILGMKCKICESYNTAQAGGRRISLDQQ
UniProt Q8IXI1, whole entry, looked up: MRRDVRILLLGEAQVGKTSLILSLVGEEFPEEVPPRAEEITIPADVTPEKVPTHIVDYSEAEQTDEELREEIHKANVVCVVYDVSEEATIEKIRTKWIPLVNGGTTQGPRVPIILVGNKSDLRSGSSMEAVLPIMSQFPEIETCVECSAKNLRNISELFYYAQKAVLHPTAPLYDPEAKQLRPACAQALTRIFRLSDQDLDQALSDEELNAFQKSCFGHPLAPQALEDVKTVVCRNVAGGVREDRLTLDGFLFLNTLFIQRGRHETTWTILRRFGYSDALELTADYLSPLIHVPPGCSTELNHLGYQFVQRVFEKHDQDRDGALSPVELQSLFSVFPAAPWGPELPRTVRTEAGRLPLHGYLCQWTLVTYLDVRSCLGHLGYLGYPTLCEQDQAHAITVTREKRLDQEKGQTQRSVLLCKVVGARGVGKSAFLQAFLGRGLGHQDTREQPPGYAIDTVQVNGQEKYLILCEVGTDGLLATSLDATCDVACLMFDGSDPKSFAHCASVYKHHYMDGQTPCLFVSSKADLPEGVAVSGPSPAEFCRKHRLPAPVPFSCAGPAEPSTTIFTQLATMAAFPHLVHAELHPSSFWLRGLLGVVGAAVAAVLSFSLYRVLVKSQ

Tests used:
Test in all cases: log2 fold change, soluble protein after heating vs DMSO (PISA); higher = thermal stabilisation; K562 cells, 10 uM, 30 min; active = over 0.2 and 3.5 SD of the protein, either way, in both replicates (recomputed)
[1] = compound: CC[C@@H]1C(=O)N(C)c2cnc(Nc3ccc(C(=O)NC4CCN(C)CC4)cc3OC)nc2N1C1CCCC1
In short: (§1)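 For each measurement, 10 μM compound was applied for 30 min to K562 cells at 2×10^6 cells/mL. Aliquots were heated for 3 min across 48°C-58°C, pooled, and extracted in PBS with 0.5% NP-40 at 4°C; the supernatant after 21,000xg for 90 min was soluble protein. This was quantified by TMTpro 16plex LC-MS/MS with channel sums equalised, and thermal stability was reported relative to control samples from duplicates, on a log2 fold-change scale.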

volasertib = compound: CC[C@@H]1C(=O)N(C)c2cnc(Nc3ccc(C(=O)N[C@H]4CC[C@H](N5CCN(CC6CC6)CC5)CC4)cc3OC)nc2N1C(C)C [volasertib]
In short: as §1

[2] = compound: CC[C@H](C)N1C=C(C2=C(C=C(C=C21)C3=CN=C(C=C3)N4CCNCC4)C(=O)NCC5=C(C=C(NC5=O)C)C)C
In short: as §1

epoxomicin = compound: CC[C@H](C)[C@@H](C(=O)N[C@@H]([C@@H](C)O)C(=O)N[C@@H](CC(C)C)C(=O)[C@]1(CO1)C)NC(=O)[C@H]([C@@H](C)CC)N(C)C(=O)C [epoxomicin]
In short: as §1

[3] = compound: CCn1c(C(=O)N(C2CC2)C2CC2)cc2c3c(ncn3C)c(Nc3cc(C)n(C)n3)nc21
In short: as §1

[4] = compound: CCn1cc(-c2ccnc3[nH]c(-c4cccc(CN(C)C)c4)cc23)c(-c2ccc(NC(=O)N(C)C)cc2)n1
In short: as §1

[5] = compound: CN(C)CC(=O)Nc1ccc2[nH]c(=O)c3ccccc3c2c1
In short: as §1

rosiglitazone = compound: CN(CCOC1=CC=C(C=C1)C[C@H]2C(=O)NC(=O)S2)C3=CC=CC=N3 (racemic) [rosiglitazone]
In short: as §1

[6] = compound: CN1C2=C(C3=C1C(=O)N(N=C3)CC4=CC(=CC=C4)N)SC(=C2)S(=O)C
In short: as §1

[7] = compound: CN1CCC(CNc2ccc3ncc(-c4cccc(OC(F)(F)F)c4)n3n2)CC1
In short: as §1

Measured: log2 fold change

RNF149 (UniProt Q8NC42)
inactive: [1] 0.025 | volasertib 0.028 | [2] 0.008 | epoxomicin 0.001 | [3] 0.035 | [4] 0.087 | [5] -0.04 | rosiglitazone 0.027 | [6] 0.109 | [7] 0.017

RCC1L (UniProt Q96I51)
inactive: [1] 0.031 | volasertib 0.021 | [2] -0.008 | epoxomicin -0.008 | [3] -0.002 | [4] -0.025 | [5] -0.028 | rosiglitazone -0.011 | [6] -0.023 | [7] 0.008

RCN1 (UniProt Q15293)
inactive: [1] 0.015 | volasertib 0.001 | [2] -0.019 | epoxomicin -0.001 | [3] 0.004 | [4] 0.085 | [5] -0.01 | rosiglitazone 0.021 | [6] -0.033 | [7] 0.02

REXO2 (UniProt Q9Y3B8)
inactive: [1] 0.018 | volasertib 0.067 | [2] -0.028 | epoxomicin -0.004 | [3] 0 | [4] 0.013 | [5] -0.005 | rosiglitazone -0.001 | [6] -0.067 | [7] -0.026

REEP6 (UniProt Q96HR9)
inactive: [1] 0.055 | volasertib 0.061 | [2] -0.09 | epoxomicin 0.121 | [3] 0.007 | [4] -0.014 | [5] 0.002 | rosiglitazone 0.006 | [6] 0.025 | [7] 0.072

RIOK1 (UniProt Q9BRS2)
inactive: [1] 0.066 | volasertib 0.071 | [2] -0.046 | epoxomicin -0.046 | [3] 0.036 | [4] 0.015 | [5] -0.002 | rosiglitazone -0.04 | [6] -0.023 | [7] 0.052

RENBP (UniProt P51606)
inactive: [1] 0.084 | volasertib 0.151 | [2] -0.01 | epoxomicin -0.042 | [3] -0.009 | [4] -0.104 | [5] -0.019 | rosiglitazone 0.037 | [6] -0.044 | [7] 0

RNASEH2C (UniProt Q8TDP1)
inactive: [1] -0.04 | volasertib -0.102 | [2] 0.049 | epoxomicin 0.049 | [3] -0.062 | [4] -0.066 | [5] 0.048 | rosiglitazone -0.033 | [6] -0.081 | [7] -0.253

RIPK2 (UniProt O43353)
inactive: [1] -0.083 | volasertib -0.053 | [2] 0.053 | epoxomicin -0.021 | [3] 0.034 | [4] -0.062 | [5] 0.05 | rosiglitazone 0.012 | [6] 0.027 | [7] -0.096

RIDA (UniProt P52758)
inactive: [1] 0.011 | volasertib 0.036 | [2] -0.037 | epoxomicin 0.003 | [3] 0.018 | [4] 0.003 | [5] 0.003 | rosiglitazone -0.03 | [6] -0.062 | [7] 0.045

RCCD1 (UniProt A6NED2)
inactive: [1] -0.068 | volasertib 0.004 | [2] -0.024 | epoxomicin -0.089 | [3] -0.017 | [4] -0.072 | [5] -0.012 | rosiglitazone -0.03 | [6] 0.013 | [7] -0.048

RMDN3 (UniProt Q96TC7)
inactive: [1] -0.029 | volasertib -0.09 | [2] 0.04 | epoxomicin -0.031 | [3] 0.011 | [4] -0.052 | [5] -0.005 | rosiglitazone 0.033 | [6] -0.021 | [7] 0.008

RNF121 (UniProt Q9H920)
inactive: [1] 0.057 | volasertib -0.124 | [2] -0.131 | epoxomicin -0.046 | [3] 0.059 | [4] -0.058 | [5] 0.04 | rosiglitazone 0.04 | [6] -0.099 | [7] 0.17

Quoted from above (two entries):
RCCD1 (UniProt A6NED2)
inactive: [1] -0.068 | volasertib 0.004 | [2] -0.024 | epoxomicin -0.089 | [3] -0.017 | [4] -0.072 | [5] -0.012 | rosiglitazone -0.03 | [6] 0.013 | [7] -0.048

RMDN3 (UniProt Q96TC7)
inactive: [1] -0.029 | volasertib -0.09 | [2] 0.04 | epoxomicin -0.031 | [3] 0.011 | [4] -0.052 | [5] -0.005 | rosiglitazone 0.033 | [6] -0.021 | [7] 0.008

Additional records.

RNF24 isoform 2 (UniProt Q9Y225)
inactive: [1] 0.166 | volasertib 0.26 | [2] -0.145 | epoxomicin 0.041 | [3] -0.035 | [4] 0.214 | [5] 0.28 | rosiglitazone -0.04 | [6] 0.109 | [7] 0.085

REEP5 (UniProt Q00765)
inactive: [1] 0.066 | volasertib 0.051 | [2] -0.049 | epoxomicin -0.021 | [3] 0.006 | [4] -0.046 | [5] -0.073 | rosiglitazone -0.024 | [6] -0.07 | [7] 0.071

REPIN1 isoform 4 (UniProt Q9BWE0)
inactive: [1] -0.018 | volasertib 0.027 | [2] 0.001 | epoxomicin 0.044 | [3] -0.059 | [4] -0.015 | [5] 0.024 | rosiglitazone -0.005 | [6] -0.008 | [7] -0.038

RBX1 (UniProt P62877)
inactive: [1] 0.042 | volasertib 0.076 | [2] -0.007 | epoxomicin -0.058 | [3] 0.103 | [4] -0.079 | [5] -0.058 | rosiglitazone 0.025 | [6] -0.115 | [7] -0.024

RHAG (UniProt Q02094)
inactive: [1] -0.051 | volasertib -0.295 | [2] -0.038 | epoxomicin -0.022 | [3] 0.04 | [4] 0.074 | [5] 0.064 | rosiglitazone 0.046 | [6] 0 | [7] 0.099

RNF214 (UniProt Q8ND24)
inactive: [1] 0.028 | volasertib -0.117 | [2] 0.08 | epoxomicin -0.013 | [3] -0.012 | [4] -0.045 | [5] 0.01 | rosiglitazone 0.069 | [6] 0.026 | [7] -0.053

RNF114 (UniProt Q9Y508)
inactive: [1] 0.004 | volasertib -0.002 | [2] 0.001 | epoxomicin 0.028 | [3] -0.014 | [4] -0.027 | [5] 0.005 | rosiglitazone 0.002 | [6] -0.081 | [7] -0.058

RFT1 (UniProt Q96AA3)
inactive: [1] 0.098 | volasertib 0.061 | [2] -0.064 | epoxomicin -0.039 | [3] 0.006 | [4] 0.011 | [5] 0.008 | rosiglitazone 0.002 | [6] 0.028 | [7] 0.094

RMND5A (UniProt Q9H871)
inactive: [1] -0.037 | volasertib -0.168 | [2] -0.005 | epoxomicin -0.032 | [3] 0.007 | [4] 0.042 | [5] 0.006 | rosiglitazone -0.032 | [6] -0.032 | [7] 0.132

RFK (UniProt Q969G6)
inactive: [1] 0.024 | volasertib -0.002 | [2] 0 | epoxomicin 0.066 | [3] 0.023 | [4] -0.051 | [5] 0 | rosiglitazone 0.039 | [6] 0.016 | [7] -0.011

RNF138 (UniProt Q8WVD3)
inactive: [1] -0.105 | volasertib -0.285 | [2] 0.143 | epoxomicin 0.081 | [3] -0.007 | [4] 0.034 | [5] 0 | rosiglitazone 0 | [6] 0.048 | [7] -0.08

RILP (UniProt Q96NA2)
inactive: [1] -0.058 | volasertib -0.112 | [2] 0.008 | epoxomicin -0.008 | [3] 0.024 | [4] -0.017 | [5] 0.002 | rosiglitazone 0.018 | [6] -0.065 | [7] 0

RCHY1 (UniProt Q96PM5)
inactive: [1] -0.06 | volasertib -0.102 | [2] -0.001 | epoxomicin 0.055 | [3] 0.016 | [4] 0.056 | [5] 0.001 | rosiglitazone -0.044 | [6] -0.107 | [7] 0.131

RHOT2 (UniProt Q8IXI1)
inactive: [1] 0.007 | volasertib -0.19 | [2] 0.027 | epoxomicin 0.014 | [3] -0.01 | [4] 0.014 | [5] 0.018 | rosiglitazone 0.064 | [6] 0.011 | [7] 0.129
